Experimental data: PubChem BioAssay AID504791 (Drosophila RNAi Screening Center, 2011)
The deposit covers about 23,000 reagents; this is an unselected part of those with a known target gene and a result. In the full data, 199 (0.86%) were called active. 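Plate-scaled ratios behind the calls are not deposited; printed light signals are raw; many rows marked increased or decreased are still called inactive.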 Unmarked entries are inactive. A plus sign joins genes that one reagent is predicted to hit.

Assay: 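Factors in Argonaute-based small RNA production and activity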 (primary screen)
Cells: Drosophila S2-derived reporter cells
Reagent: long dsRNA against Drosophila genes, about 150-250 ng dsRNA per well (siRNA assay); about 80-120 ng (miRNA assay)
Timing: about 5 days (siRNA assay); about 4 days (miRNA assay)
Treatment: copper sulfate induction of reporters: 25 µM (siRNA assay); 200 mM stated (miRNA assay), 1-2 days before reading
Read-out: 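Per-well ratio of Renilla over firefly light, expressed relative to that plate's average ratio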
Direction: siRNA reporter hit score: higher = 3 marks a strong hit with raised ratio; -3 a strong hit with lowered ratio
Call rule: 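a well was a first-pass pick when its plate-scaled ratio rose above 1.5 (siRNA assay) or 1.6 (miRNA assay), or dropped below 0.6; a gene counted only if two separate dsRNAs agreed on retest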

| gene | amplicon | siRNA reporter hit score | stable siRNA reporter change | miRNA reporter change | stable assay Renilla, run 1 (luminescence) | stable assay firefly, run 1 (luminescence) |
| --- | --- | --- | --- | --- | --- | --- |
| CG12107 | DRSC06102 | – | – | – | 8067 | 6.03e5 |
| CG6638 | DRSC10680 | – | – | – | 6556 | 4.39e5 |
| wit (wishful thinking) | DRSC08741 | – | – | – | 8080 | 3.74e5 |
| Mst84B (Male-specific transcript 84B) | DRSC12579 | – | – | – | 6027 | 3.10e5 |
| CG5445 | DRSC19943 | – | – | – | 5395 | 4.38e5 |
| CG5445 | DRSC23180 | – | – | – | 3323 | 2.98e5 |
| dpr3 (defective proboscis extension response 3) | DRSC00395 | – | – | – | 7939 | 5.06e5 |
| dpr3 (defective proboscis extension response 3) | DRSC00396 | -3 | reporter ratio raised past the hit cutoff | reporter ratio raised past the hit cutoff | 12840 | 3.92e5 |
| dpr3 (defective proboscis extension response 3) | DRSC21369 | – | – | – | 7179 | 2.86e5 |
| CG9302 | DRSC03191 | – | – | – | 4668 | 4.98e5 |
| CG12236 | DRSC17830 | – | – | – | 9119 | 3.62e5 |
| CG12236 | DRSC17831 | – | – | – | 5215 | 3.06e5 |
| CG15207 (retired record) | DRSC19653 | – | reporter ratio raised past the hit cutoff | – | 3496 | 94162 |
| CG15207 (retired record) | DRSC22791 | – | – | – | 3988 | 3.69e5 |
| CG10102 (retired record) | DRSC05963 | – | – | – | 8698 | 4.88e5 |
| CG9981 | DRSC20225 | – | – | – | 4971 | 4.46e5 |
| Acat2 (Acetyl-CoA acetyltransferase 2) | DRSC08630 | – | – | – | 5500 | 3.25e5 |
| Pkcdelta (Protein kinase C delta) | DRSC19356 | – | – | – | 6090 | 5.75e5 |
| Pkcdelta (Protein kinase C delta) | DRSC19399 | – | – | – | 5368 | 4.69e5 |
| CG15194 (retired record) | DRSC19642 | – | – | – | 5479 | 4.71e5 |
| CG15194 (retired record) | DRSC19777 | – | – | – | 5324 | 4.66e5 |
| Cyp4s3 (Cytochrome P450 4s3) | DRSC20241 | – | – | – | 4263 | 2.83e5 |
| Cyp4s3 (Cytochrome P450 4s3) | DRSC22340 | – | – | – | 8477 | 5.21e5 |
| CG31342 | DRSC15349 | – | – | – | 8547 | 4.36e5 |
| CG31342 | DRSC16246 | – | – | – | 6835 | 6.04e5 |
| CG3198 | DRSC18292 | – | – | reporter ratio raised past the hit cutoff | 5315 | 2.62e5 |
| PTPMT1 (Protein tyrosine phosphatase, mitochondrial 1) | DRSC14235 | – | – | – | 5940 | 3.60e5 |
| CCT1 (Chaperonin containing TCP1 subunit 1) | DRSC16877 | – | – | – | 9143 | 3.73e5 |
| CG31204 | DRSC15106 | – | – | – | 7742 | 5.72e5 |
| HLH54F | DRSC07438 | – | – | – | 5946 | 3.59e5 |
| Ndc1 (Nuclear division cycle 1) | DRSC15895 | – | – | – | 12509 | 3.54e5 |
| CG13077 | DRSC02181 | – | – | – | 6566 | 3.88e5 |
| CG8745 | DRSC11033 | – | – | – | 9312 | 4.53e5 |
| CG8745 | DRSC11034 | – | – | – | 7167 | 5.50e5 |
| CG8745 | DRSC22741 | – | – | – | 2171 | 2.54e5 |
| msl-1 (male-specific lethal 1) | DRSC03573 | – | – | – | 6620 | 4.42e5 |
| Wnt5 (Wnt oncogene analog 5) | DRSC20300 | – | – | – | 5782 | 4.53e5 |
| UQCR-14L (Ubiquinol-cytochrome c reductase 14 kDa subunit-like) | DRSC15288 | – | – | – | 5682 | 3.68e5 |
| UQCR-14L (Ubiquinol-cytochrome c reductase 14 kDa subunit-like) | DRSC22425 | – | – | – | 4799 | 3.01e5 |
| CG3222 | DRSC10355 | – | – | – | 5796 | 3.52e5 |
| CG16782 | DRSC18118 | – | – | – | 6516 | 4.32e5 |
| prt (portabella) | DRSC16894 | – | – | – | 6002 | 3.19e5 |
| prim (primacord) | DRSC06575 | – | – | – | 7344 | 4.19e5 |
| CG34280 | DRSC13229 | – | – | – | 4967 | 4.55e5 |
| CtsB (Cathepsin B) | DRSC19361 | – | – | – | 8494 | 5.02e5 |
| smo (smoothened) | DRSC00837 | – | – | – | 12035 | 5.72e5 |
| RpS28b (Ribosomal protein S28b) | DRSC18258 | – | – | reporter ratio lowered past the hit cutoff (active) | 7259 | 4.38e5 |
| CG9664 | DRSC00725 | – | – | – | 19457 | 4.17e5 |
| MAPk-Ak2 (MAP kinase activated protein-kinase-2) | DRSC18678 | – | – | – | 4928 | 3.65e5 |
| CG8407 | DRSC07167 | – | – | – | 6987 | 5.81e5 |
| CG15743 | DRSC19709 | – | – | – | 5428 | 4.38e5 |
| S-Lap5 (Sperm-Leucylaminopeptidase 5) | DRSC06732 | – | – | – | 6179 | 3.00e5 |
| MCTS1 (Malignant T cell amplified sequence 1) | DRSC18393 | – | – | – | 7874 | 3.97e5 |
| CG15525 | DRSC15062 | – | – | – | 1336 | 63452 |
| CG43127 | DRSC09039 | – | – | – | 4811 | 3.78e5 |
| AhcyL2 (Adenosylhomocysteinase like 2) | DRSC14107 | – | – | – | 6739 | 3.51e5 |
| CG16953 | DRSC15167 | – | – | – | 8987 | 3.33e5 |
| CG15059 | DRSC19633 | – | – | – | 4924 | 3.95e5 |
| Cp15 (Chorion protein 15) | DRSC11118 | – | – | – | 5487 | 3.58e5 |
| CG42322 | DRSC15112 | – | – | – | 7863 | 3.21e5 |
| CG42322 | DRSC15113 | – | – | – | 6603 | 3.29e5 |
| CG42322 | DRSC15114 | – | – | – | 6071 | 2.76e5 |
| rogdi | DRSC10906 | – | – | – | 8386 | 3.70e5 |
| CG13654 | DRSC14654 | – | – | – | 6916 | 2.67e5 |
| CG8292 | DRSC03082 | – | – | – | 8503 | 3.31e5 |
| CG5335 | DRSC06931 | – | – | – | 12081 | 3.45e5 |
| spaw (spacewatch) | DRSC06824 | – | – | – | 6091 | 3.01e5 |
| SP2353 | DRSC07545 | – | – | – | 5415 | 2.61e5 |
| Mayo | DRSC14300 | – | – | – | 6367 | 4.07e5 |
| CG31121 | DRSC15361 | – | – | – | 7817 | 3.67e5 |
| CG31121 | DRSC15363 | – | – | – | 6266 | 3.55e5 |
| CG14316 | DRSC14795 | – | – | – | 6862 | 3.54e5 |
| Nup154 (Nucleoporin 154kD) | DRSC03384 | – | reporter ratio raised past the hit cutoff | – | 8953 | 4.61e5 |
| CG32847 | DRSC22901 | – | – | – | 3748 | 3.71e5 |
| CG32820 + CG17450 + CG32819 | DRSC21803 | – | – | – | 9186 | 5.48e5 |
| CG32820 + CG17450 + CG32819 | DRSC22812 | – | – | – | 4339 | 4.85e5 |
| CG15212 | DRSC10212 | – | – | – | 6096 | 4.07e5 |
| CG15362 | DRSC00392 | – | – | – | 7426 | 5.29e5 |
| tai (taiman) | DRSC02207 | – | reporter ratio raised past the hit cutoff | – | 6214 | 2.00e5 |
| tai (taiman) | DRSC02673 | – | – | – | 7139 | 4.43e5 |
| Lnpk (Lunapark) | DRSC07254 | – | – | – | 5475 | 3.62e5 |
| CG12402 | DRSC14508 | – | – | – | 7868 | 4.29e5 |
| yellow-g2 | DRSC08338 | – | – | – | 6507 | 3.60e5 |

An excerpt from above, limited to “stable assay firefly, run 1 (luminescence)”:
SP2353 [DRSC07545] = 2.61e5
Mayo [DRSC14300] = 4.07e5
CG31121 [DRSC15361] = 3.67e5
CG31121 [DRSC15363] = 3.55e5
CG14316 [DRSC14795] = 3.54e5
Nup154 (Nucleoporin 154kD) [DRSC03384] = 4.61e5
CG32847 [DRSC22901] = 3.71e5
CG32820 + CG17450 + CG32819 [DRSC21803] = 5.48e5
CG32820 + CG17450 + CG32819 [DRSC22812] = 4.85e5
CG15212 [DRSC10212] = 4.07e5
CG15362 [DRSC00392] = 5.29e5
